Assay results reported in patent publication US9029503 (dated 2015).

How the values were obtained:
[1] = general procedure: Fmoc solid-phase peptide synthesis; Fmoc-Gly-Wang resin; HBTU/DiEA; conditions: whole synthesis, HPLC and capillary electrophoresis, scale 0.5 mmol
[2] = general procedure: Fmoc solid-phase peptide synthesis; bis(2-sulfanylethyl)amino trityl resin (Examples 5/6); Fmoc-Gly-Wang; Novasyn TGR; HBTU/DiEA; conditions: whole synthesis, scale of the general procedure 0.1 mmol to 0.5 mmol; for isolated yield: final yield

H-GFGQGFGG-OH
crude HPLC purity [1]: 79%

H-ILKEPVHGA -N(CH2CH2SH)2
final HPLC purity [2]: 97%

H-ILKEPVHGG-N(CH2CH2SH)2
final HPLC purity [2]: 96%
isolated yield [2]: 17%

H-ILKEPVHGV-N(CH2CH2SH)2
final HPLC purity [2]: 99%
isolated yield [2]: 23%

H-ILKEPVHGY-N(CH2CH2SH)2
isolated yield [2]: 20%
